From PubChem BioAssay AID504834 (National Center for Advancing Translational Sciences (NCATS), 2011)
The whole screen tested about 320,000 compounds, of which about 22,000 (6.9%) were called active. The inconclusive results got no clear call from the source; some entries with a clear call stand among them for comparison. The call rests on the fitted dose curve; in most records, active means well fitted inhibition curve with a large enough effect; inconclusive means small, poorly fitted or top-dose-only effect, or another doubt; inactive means no such curve, though single readings can be large or run the other way. A potency beside an inconclusive call is a rough fit, not a confirmed value.

Test: Primary qHTS for delayed death inhibitors of the malarial parasite plastid, 96 hour incubation
Details: P. falciparum luciferase reporter growth; series mostly up to 28.7 µM; activity change, negative = inhibition: at the top concentration
Method in brief: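 Luminescence readout: decreased luciferase signal marks inhibited growth of reporter-expressing P. falciparum in infected red cells (2% hematocrit, 0.05% parasitemia final), exposed to compound two generations (96 h, 37 C, 5% CO2).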
On the % scale 0 is the no-effect control and ±100 the full control effect; potency means the concentration at half of the fitted maximal effect.

Compound | Potency | activity change, negative = inhibition
COc1ccc(Cc2noc(CN(C)CCN3CCc4ccccc4C3)n2)cc1OC | active: 7.38 µM | 
Cc1ccc(NC(=O)COC(=O)c2cc(=O)c3cc(F)ccc3o2)cc1 |  | inactive: 13.1%
C/C(=N/NC(=O)c1ccc(Br)o1)c1ccc(C)o1 |  | inactive: -27.2%
CC(=O)Nc1ccc(NC(=S)NC(=O)C2CC2)cc1 |  | inactive: 18.4%
COc1ccc(C(=O)c2c(C(F)(F)F)oc3c2C(=O)c2ccccc2C3=O)cc1OC | inconclusive: 9.28 µM [inhibitor, partial curve, poor fit] | 
CC(C)CC(=O)Nc1cc([N+](=O)[O-])ccc1Cl |  | inactive: 45.9%
COc1ccc(-c2csc3ncnc(N4CCN(S(=O)(=O)c5cccc(F)c5)CC4)c23)cc1 | inconclusive: 18.5 µM [inhibitor, single point] | 
O=c1cc(-c2cccc(F)c2)[nH]c2ccccc12 | inconclusive: 13.1 µM [inhibitor, partial curve, poor fit] | 
COc1ccc(C(=O)N2CCN(c3ccc(C)cc3)CC2)cc1OC | inconclusive: 10.4 µM [inhibitor, single point] | 
CCOC(=O)C1CCCN(C(=O)c2ccc(C)c([N+](=O)[O-])c2)C1 (stereo not given) | inconclusive: 11.7 µM [inhibitor, partial curve, poor fit] | 
CCCOc1ccc(N2C(=O)CC(SCC(N)C(=O)OCC)C2=O)cc1 (stereo not given) | inconclusive: 9.28 µM [inhibitor, single point] | 
CC(C)(C)Nc1nc2nonc2nc1NC(C)(C)C | inconclusive: 14.7 µM [inhibitor, single point] | 
CC(=O)N1CC(=O)Nc2ccc(Cl)cc2C1c1ccccc1 (stereo not given) |  | inactive: 27.5%
CCO[C@H]1OC(C(=O)N2CCN(Cc3ccc4c(c3)OCO4)CC2)=C[C@@H](c2ccccc2)[C@@H]1CCCO | inconclusive: 1.85 µM [inhibitor, partial curve] | 
O=C(COC(=O)c1cc[n+]([O-])cc1)Nc1cccc(Cl)c1Cl |  | inactive: 17.1%
COc1ccc(/C(N)=N/OC(=O)c2cccc([N+](=O)[O-])c2C)cc1OC | active: 13.1 µM | 
Cc1nc2ccc(Cl)cc2c(-c2ccccc2)c1C(=O)O | inconclusive: 13.1 µM [inhibitor, single point] | 
O=C(COC(=O)c1ccc2c(c1Cl)C(=O)c1ccccc1C2=O)NC1CC1 | inconclusive: 18.5 µM [inhibitor, single point] | 
COc1ccc(CCN2CC(C(=O)NCc3nc4ccccc4n3C)CCC2=O)cc1 (stereo not given) | inconclusive: 10.4 µM [inhibitor, single point] | 
C/C(Cc1ccccc1)=N\NC(=O)c1cc(C(C)(C)C)[nH]n1 | inconclusive: 13.1 µM [inhibitor, partial curve, poor fit] | 

Four compounds out of the list, sorted by length of the SMILES, low to high.
Compound | Potency | activity change, negative = inhibition
CC(C)(C)Nc1nc2nonc2nc1NC(C)(C)C | inconclusive: 14.7 µM [inhibitor, single point] | 
C/C(=N/NC(=O)c1ccc(Br)o1)c1ccc(C)o1 |  | inactive: -27.2%
O=C(COC(=O)c1cc[n+]([O-])cc1)Nc1cccc(Cl)c1Cl |  | inactive: 17.1%
COc1ccc(Cc2noc(CN(C)CCN3CCc4ccccc4C3)n2)cc1OC | active: 7.38 µM | 
